PubChem BioAssay AID493246 – Drosophila RNAi Screening Center, 2011

- Purpose: 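Genes fly cells need to grow and stay alive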 (primary screen)
- Cells: Drosophila Kc and S2R+ cells
- Reagents: long dsRNA against Drosophila genes
- Measurement: 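Raw, unnormalised count of remaining cells in each well; per-plate z-scores of cell number underlie the calls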
- Reading the numbers: Kc cell number and S2R+ cell number: higher = more cells remaining
- Hit rule: 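Counted as a hit if cell number falls by a z-score of at least 3 within its plate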
The screen tested about 21,000 reagents; shown is a random part of those that have a named target and a result. In the full data, 429 (2%) were called active. 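Values are raw and not normalised between plates; calls rest on per-plate z-scores that were not deposited.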 Unmarked entries are inactive. Reagents against one gene are numbered here. A plus sign joins genes that one reagent is predicted to hit. No sequences are given here. The record does not give: the amount of reagent, the time to read-out.

gene | dsRNA no. | Kc cell number, rep 1 | Kc cell number, rep 2 | S2R+ cell number, rep 1 | S2R+ cell number, rep 2
modSP | 1 | 1.28e6 | 1.42e6 | 1.14e6 | 1.29e6
modSP | 2 | 1.41e6 | 1.44e6 | 1.16e6 | 1.29e6
Git | 1 | 1.35e6 | 1.40e6 | 1.14e6 | 1.20e6
stretch (retired record) | 1 | 1.81e6 | 1.85e6 | 9.75e5 | 1.07e6
stretch (retired record) | 2 | 1.59e6 | 1.63e6 | 1.34e6 | 1.46e6
stretch (retired record) | 3 | 1.62e6 | 1.64e6 | 1.38e6 | 1.41e6
stretch (retired record) | 4 | 1.51e6 | 1.65e6 | 1.35e6 | 1.46e6
stretch (retired record) | 5 | 1.44e6 | 1.56e6 | 1.40e6 | 1.43e6
pita | 1 | 1.45e6 | 1.46e6 | 9.96e5 | 1.13e6
pita | 2 | 1.50e6 | 1.52e6 | 1.19e6 | 1.29e6
Cf2 | 1 | 1.08e6 (active) | 1.04e6 | 5.97e5 | 7.02e5
CG32271 | 1 | 1.59e6 | 1.54e6 | 1.08e6 | 1.42e6
kraken | 1 | 1.43e6 | 1.52e6 | 9.84e5 | 1.16e6
Cyp4d21 | 1 | 1.19e6 | 1.27e6 | 6.19e5 | 9.35e5
CG5569 | 1 | 1.60e6 | 1.60e6 | 1.20e6 | 1.30e6
CG31872 | 1 | 1.71e6 | 1.66e6 | 1.12e6 | 1.29e6
CG31872 | 2 | 1.76e6 | 1.76e6 | 1.20e6 | 1.40e6
CG7707 | 1 | 1.66e6 | 1.87e6 | 1.37e6 | 1.43e6
l(2)k14505 | 1 | 1.34e6 | 1.39e6 | 1.06e6 | 1.16e6
Cyp6d4 | 1 | 1.69e6 | 1.77e6 | 1.21e6 | 1.28e6
IPIP | 1 | 1.33e6 | 1.37e6 | 6.52e5 | 8.93e5
CG2574 | 1 | 1.57e6 | 1.69e6 | 1.18e6 | 1.31e6
Chd1 | 1 | 1.16e6 | 1.23e6 | 9.46e5 | 1.02e6
phu | 1 | 1.54e6 | 1.53e6 | 1.22e6 | 1.34e6
Kah | 1 | 1.62e6 | 1.70e6 | 1.07e6 | 1.32e6
Kah | 2 | 1.44e6 | 1.23e6 | 1.12e6 | 1.38e6
Svip | 1 | 1.56e6 | 1.59e6 | 1.20e6 | 1.38e6
Polr2I | 1 | 1.60e6 | 1.64e6 | 9.34e5 | 1.07e6
sky | 1 | 1.49e6 | 1.47e6 | 1.06e6 | 1.14e6
sky | 2 | 1.38e6 | 1.45e6 | 9.87e5 | 1.01e6
sky | 3 | 1.57e6 | 1.67e6 | 1.26e6 | 3.80e5
CG11902 | 1 | 1.73e6 | 1.74e6 | 1.05e6 | 1.23e6
BEAF-32 + CG42254 (retired record) | 1 | 1.42e6 | 1.42e6 | 1.00e6 | 1.12e6
jtb | 1 | 1.60e6 | 1.62e6 | 1.12e6 | 1.24e6
CG11777 | 1 | 1.64e6 | 1.70e6 | 1.41e6 | 1.50e6
CG31099 | 1 | 1.64e6 | 1.70e6 | 1.06e6 | 1.13e6
CG5828 | 1 | 1.79e6 | 1.89e6 | 1.31e6 | 1.53e6
Src64B | 1 | 1.34e6 | 1.38e6 | 1.10e6 | 1.11e6
cher | 1 | 1.47e6 | 1.57e6 | 1.16e6 | 1.26e6
Miro | 1 | 1.55e6 | 1.58e6 | 1.27e6 | 1.33e6
Lcch3 | 1 | 6.60e5 | – | 9.89e5 | –
ND-B22 | 1 | 1.39e6 | 1.46e6 | 1.05e6 | 1.16e6
CG10738 | 1 | 1.45e6 | 1.33e6 | 1.42e6 | 1.52e6
Epac | 1 | 1.43e6 | 1.55e6 | 1.01e6 | 1.05e6
Epac | 2 | 1.48e6 | 1.64e6 | 1.34e6 | 1.56e6
PMCA | 1 | 1.15e6 | 1.49e6 | 1.04e6 | 1.11e6
PMCA | 2 | 1.43e6 | 1.59e6 | 1.01e6 | 1.12e6
PMCA | 3 | 6.69e5 | – | 7.99e5 | –
CG13445 | 1 | 1.48e6 | 1.51e6 | 1.12e6 | 1.26e6
Ir94e | 1 | 1.39e6 | 1.53e6 | 1.05e6 | 1.10e6
KaiR1D | 1 | 1.25e6 | 1.26e6 | 1.12e6 | 1.19e6
AQP | 1 | 1.52e6 | 1.50e6 | 1.19e6 | 1.24e6
Fit1 | 1 | 1.36e6 | 1.51e6 | 1.26e6 | 1.14e6
Pfdn6 | 1 | 1.41e6 | 1.44e6 | 1.29e6 | 1.37e6
CG7742 | 1 | 1.29e6 | 1.26e6 | 6.38e5 | 1.02e6
CG11345 | 1 | 1.66e6 | 1.72e6 | 1.20e6 | 1.27e6
CG5973 | 1 | 1.37e6 | 1.37e6 | 6.70e5 | 7.59e5
DIP-beta | 1 | 1.36e6 | 1.45e6 | 1.14e6 | 1.11e6
DIP-beta | 2 | 1.51e6 | 1.55e6 | 1.04e6 | 1.18e6
DIP-beta | 3 | 1.49e6 | 1.48e6 | 1.02e6 | 1.14e6
DIP-beta | 4 | 1.72e6 | 1.70e6 | 1.06e6 | 1.20e6

Records above with an active call, once more:
gene | dsRNA no. | Kc cell number, rep 1 | Kc cell number, rep 2 | S2R+ cell number, rep 1 | S2R+ cell number, rep 2
Cf2 | 1 | 1.08e6 (active) | 1.04e6 | 5.97e5 | 7.02e5
